Measurements: PubChem BioAssay AID493014 (National Center for Advancing Translational Sciences (NCATS), 2011)
The list shows a part of the results. These are further read-outs of the screen, such as a control signal, another cell line or another target. No call is given for them. Most of these compounds were active or inconclusive in the main read-out, so they are no random draw. Words in brackets tell the shape of the fitted curve; partial curves, single points and poor fits give uncertain potencies.

Test: qHTS Assay to Find Inhibitors of Chronic Active B-Cell Receptor Signaling
Settings: ABC-DLBCL IkBa-CBG/CBR reporter, luminescence ratio (green luciferase fused to IkBa over red control in TMD8 lymphoma cells), 4 h
Outline: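 TMD8 human ABC-DLBCL cells with doxycycline-inducible IκBα–green luciferase fusion and unfused red luciferase, in 0.5% FBS medium; compounds up to 46 uM, 4 h at 37C. Green/red luminescence ratio, filter-overlap corrected, fitted to concentration-response curves.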

[1] = measured here: CBR red luminescence, cell number
[2] = measured here: IkBa-CBG green luminescence

## Oc1ccc(Cl)cc1CNCc1ccc(C(F)(F)F)cc1
[1]
  AC50: 5.17 µM [rising, partial curve]

## O=C(CSC1=NC(=O)C(Cc2ccccc2)C(=O)N1)Nc1ncccn1 (configuration not stated)
[1]
  AC50: 12.6 µM [rising, partial curve, poor fit]

## CCOC(=O)C1CCN(C(=O)CCC(=O)NCCc2ccc(Cl)cc2)CC1
[1]
  AC50: 35.5 µM [rising, partial curve, poor fit]

## COc1ccc(C(C)NC(=O)c2ccoc2C)cc1OC (configuration not stated)
[1]
  AC50: 29.1 µM [falling, single point]
[2]
  AC50: 32.6 µM [rising, partial curve, poor fit]

## Oc1ccccc1/C=N/NC(=S)NC1CC2CCC1C2 (configuration not stated)
[1]
  AC50: 0.891 µM [falling, full curve, poor fit]

## COc1ccc(NC(=O)Nc2cc(C)ccc2F)cc1OC
[1]
  AC50: 22.4 µM [falling, single point]

## O=C(CSc1ncccc1C(=O)O)c1ccc2ccccc2c1
[1]
  AC50: 1.58 µM [rising, partial curve, poor fit]
[2]
  AC50: 7.08 µM [falling, partial curve, poor fit]

## Cc1nc(NC(=O)/C=C/c2ccccc2)sc1C(=O)Nc1ccccc1Cl
[1]
  AC50: 0.447 µM [falling, full curve]

## CN(Cc1ccon1)Cc1cn(C)nc1-c1ccc(Oc2ccccc2)cc1
[1]
  AC50: 17.8 µM [rising, partial curve, poor fit]

## CCCCCCn1cnc2c(c1=O)c1nc3ccccc3nc1n2/N=C/c1ccco1
[1]
  AC50: 5.01 µM [falling, partial curve, poor fit]

## Clc1ccc(Cl)c(OCCCCN2CCNCC2)c1
[1]
  AC50: 15.8 µM [falling, single point]

## CCc1nn(CCCC(=O)N2CCN(c3ccc(OC)cc3)CC2)c(=O)c2cc3occc3n12
[1]
  AC50: 2.82 µM [rising, full curve, poor fit]

## CCCCNc1c(-c2ccc(-c3ccc(C(C)=O)cc3)c(OC)c2)nc2cnccn12
[1]
  AC50: 32.6 µM [falling, single point]

## CC(NC(=O)c1ccccc1Cl)C(=O)OCc1cn2cc(Cl)ccc2n1 (configuration not stated)
[1]
  AC50: 9.2 µM [rising, partial curve]

## O=C(Nc1cccc(Cl)c1)c1cc(-c2ccccc2)on1
[1]
  AC50: 5.62 µM [falling, partial curve]

## CC(C)C(=O)Nc1ccc2c(c1)nc(CCN1CCN(c3ccccn3)CC1)n2C
[1]
  AC50: 35.5 µM [falling, single point]

## O=C(c1cc2ccccc2o1)c1cccs1
[1]
  AC50: 1.46 µM [rising, partial curve, poor fit]

## COc1cc2c(=O)c(-c3ccc(O)cc3)coc2cc1OC1OC(CO)C(O)C(O)C1O (configuration not stated)
[1]
  AC50: 29.1 µM [rising, single point]

## CCCc1cc(=O)oc2c(C)c(OCC(=O)N3CCC(C(=O)O)(c4ccccc4)CC3)ccc12
[1]
  AC50: 0.708 µM [falling, partial curve, poor fit]

## CNc1ccc(/C=C(\C#N)C(=O)Nc2ccccn2)cc1[N+](=O)[O-]
[1]
  AC50: 35.5 µM [rising, single point]

## CCN(CC)c1ccc(/C=N/NC(=O)CNC(=O)c2ccc3c(c2)OCCO3)cc1
[1]
  AC50: 12.6 µM [falling, single point]

## C/C(=N\NC(=O)c1ccoc1C)c1cccnc1
[1]
  AC50: 25.9 µM [falling, single point]

## C/C(N)=C(/C#N)C(=O)CSc1nc2ccc(C)cc2[nH]1
[1]
  AC50: 2 µM [falling, full curve]

## CCc1ccc(OCC(=O)NCc2ccco2)c(Br)c1
[1]
  AC50: 2.24 µM [rising, partial curve, poor fit]

## CCC(C)Nc1nc(-c2ccc3c(c2)NC(=O)CO3)cs1 (configuration not stated)
[1]
  AC50: 14.1 µM [rising, partial curve, poor fit]

## O=C(Nc1ccc(N2CCOCC2)cc1)c1cnsn1
[1]
  AC50: 14.6 µM [falling, partial curve, poor fit]

## Cc1ccc(NC(=O)C(=O)NCc2ccccn2)cc1
[1]
  AC50: 8.91 µM [falling, partial curve, poor fit]

## Cc1ccc(NC(=O)C2=CC(c3ccc(C)cc3)=NS(=O)(=O)N2C)cc1
[1]
  AC50: 12.6 µM [falling, partial curve, poor fit]

## S=C(NCc1ccc(Cl)cc1Cl)NC1CCCCC1
[1]
  AC50: 23.1 µM [falling, single point]

## O=c1oc(-c2ccccc2)nc2sc3c(c12)CCC3
[1]
  AC50: 6.51 µM [falling, partial curve]

## COc1ccccc1OCC(=O)NCC1CCCCC1
[1]
  AC50: 4.61 µM [rising, partial curve]

## Cc1ccccc1CC(=O)Nc1cccc(S(=O)(=O)N2CCCC2)c1
[1]
  AC50: 4.61 µM [rising, single point]

## O=C(NC(=S)Nc1ncccn1)c1ccc(Cl)cc1Cl
[1]
  AC50: 2.51 µM [falling, full curve]

## CC(=O)N(CCc1ccccc1C)Cc1cc2cc(C)ccc2[nH]c1=O
[1]
  AC50: 14.1 µM [rising, single point]

## C=CCn1c(C(c2ccccc2)c2ccccc2)n[nH]c1=S
[2]
  AC50: 23.1 µM [falling, partial curve, poor fit]

## CCN(C(=O)COC(=O)c1cccnc1Nc1cccc(C(F)(F)F)c1)C1CCS(=O)(=O)C1 (configuration not stated)
[1]
  AC50: 10.3 µM [falling, partial curve, poor fit]

## O=C(NCc1ccccn1)c1cc2cc(Br)ccc2oc1=O
[1]
  AC50: 16.4 µM [rising, single point]

## O=C(Nc1nccs1)c1ccc(NC(=O)c2ccco2)cc1
[1]
  AC50: 16.4 µM [falling, partial curve, poor fit]

## O=C1C2C3C=CC(C3=C(c3ccccc3)c3ccccc3)C2C(=O)N1CCO (configuration not stated)
[1]
  AC50: 20.6 µM [rising, single point]

## CCOc1cc(/C=N/Nc2nnc(C)n2N)ccc1OC(C)=O
[1]
  AC50: 35.5 µM [falling, single point]

## O=C(NCc1ccc2c(c1)OCO2)C1CCN(c2ccc(S(=O)(=O)N3CCCC3)cc2)CC1
[1]
  AC50: 23.1 µM [falling, partial curve, poor fit]

## CC(C)c1cc(=O)oc2c3c4c(cc12)CCCN4CCC3
[1]
  AC50: 35.5 µM [falling, single point]

## O=C(COC(=O)Cc1ccc(S(=O)(=O)N2CCOCC2)s1)Nc1ccc([N+](=O)[O-])cc1
[1]
  AC50: 2.31 µM [rising, full curve]

## CCc1ccc(OCC(=O)Nc2ccc(-c3cc4ccccc4oc3=O)c(OC)c2)cc1
[2]
  AC50: 5.17 µM [falling, partial curve, poor fit]

## Nc1c(N)c2ccccc2oc1=O
[1]
  AC50: 0.326 µM [falling, full curve]

## Cc1nc(N2CCC(C)CC2)c2c(C)c(C(=O)Nc3ccccc3C(F)(F)F)sc2n1
[1]
  AC50: 2.51 µM [rising, full curve, poor fit]

## COc1ccc(-c2c(-c3ccccc3OC)sc3ccccc23)cc1C=O
[1]
  AC50: 0.0731 µM [rising, full curve, poor fit]

## Cn1cc(/C=N/NC(=O)c2ccccc2O)c2ccccc21
[1]
  AC50: 10 µM [falling, partial curve]

## CC(=O)c1ccc2noc(-c3ccc(C)cc3)c2c1
[1]
  AC50: 12.6 µM [falling, single point]

## O=C(Nc1ccc(S(=O)(=O)N2CCCCC2)cc1)c1ccc(CN2CCOCC2)cc1
[1]
  AC50: 18.4 µM [falling, partial curve, poor fit]

## O=C1NC(N2CCOCC2)=N/C1=C/c1ccc2c(c1)OCO2
[1]
  AC50: 22.4 µM [falling, single point]

## Cc1ccc(S(=O)(=O)Nc2cc(C(C(=O)OC(C)C)C(=O)C(F)(F)F)c(O)c3ccccc23)c(C)c1 (configuration not stated)
[1]
  AC50: 0.259 µM [falling, full curve, poor fit]

## Nc1c(C(=O)N/N=C/c2cccnc2)oc2nc(-c3ccccc3)cc(-c3ccco3)c12
[1]
  AC50: 20 µM [falling, partial curve, poor fit]

## CCCS(=O)(=O)N1CCN(c2ccccc2F)CC1
[1]
  AC50: 16.4 µM [falling, partial curve, poor fit]

## CCOC(=O)CSc1nc(=O)n2ccc(C)cc2n1
[1]
  AC50: 31.6 µM [rising, single point]

## COc1ccc(NC(=O)c2[nH]ncc2[N+](=O)[O-])cc1
[1]
  AC50: 15.8 µM [falling, single point]

## COc1ccc(-c2nnn(CCC(=O)O)n2)cc1
[1]
  AC50: 20.6 µM [falling, partial curve, poor fit]

## CCOC(=O)c1c(C)[nH]c(C)c1S(=O)(=O)N1CCN(c2ccc([N+](=O)[O-])cc2)CC1
[1]
  AC50: 20 µM [rising, partial curve, poor fit]
[2]
  AC50: 15.8 µM [falling, partial curve, poor fit]

## Cc1ccc(CNC(=O)CN(c2ccc(C)cc2)S(=O)(=O)c2c(C)n[nH]c2C)cc1
[1]
  AC50: 25.1 µM [falling, single point]

## COCCOC(=O)c1sc(=S)n(CCOC)c1N
[2]
  AC50: 35.5 µM [falling, single point]

## COCCNC(=O)C(=O)Nc1ccc(Br)cc1
[1]
  AC50: 14.6 µM [falling, single point]

## COc1ccc(/C=C/C(=O)c2ccc3c(c2)OCO3)cc1OC
[1]
  AC50: 16.4 µM [falling, single point]

## CCN(CC)S(=O)(=O)c1cccc(NC(=O)C2SC(=Nc3ccc(C)cc3C)C(C(=O)NC(C)COC)=C2N)c1 (configuration not stated)
[1]
  AC50: 29.1 µM [falling, single point]

## Cc1ccc(O)c(C(=O)c2cnn(C(=O)Cc3csc(C)n3)c2)c1
[1]
  AC50: 35.5 µM [rising, single point]
